Source: patent publication US8993542B2, “Methods of treating viral infections” (priority 2008, dated 2015)
For at least one compound, name, drawing or mass did not settle the structure.

Tested on: HIV-1IIIB
Test: Two-drug combination antiviral assay in CEM cells (CPE), MacSynergy II
Assay type: cell-based
Conditions: two-drug combination (with CMX157; control d4T/RBV), CEM-SS cells

## Nc1ccn([C@@H]2CS[C@H](CO)O2)c(=O)n1 [3TC, (2R, 5S, cis)-4-amino-1-(2-hydroxymethyl-1,3-oxathiolan-5-yl)-(1H)-pyrimidin-2-one]
  Interpretation of Antiviral Results (MacSynergy): slightly synergistic
